# In the supplement of paper PMC8728848:
# The other results are listed elsewhere or left out.
# B1: Thrombomodulin Extracellular (Mus musculus), P15306 (protein)
# chain: MLGIFFLGVLAPASLGLSALAKLQPTGSQCVEHECFALFQGPATFLDASQACQRLQGHLMTVRSSVAADVISLLLSQSSMDLGPWIGLQLPQGCDDPVHLGPLRGFQWVTGDNHTSYSRWARPNDQTAPLCGPLCVTVSTATEAAPGEPAWEEKPCETETQGFLCEFYFTASCRPLTVNTRDPEAAHISSTYNTPFGVSGADFQTLPVGSSAAVEPLGLELVCRAPPGTSEGHWAWEATGAWNCSVENGGCEYLCNRSTNEPRCLCPRDMDLQADGRSCARPVVQSCNELCEHFCVSNAEVPGSYSCMCETGYQLAADGHRCEDVDDCKQGPNPCPQLCVNTKGGFECFCYDGYELVDGECVELLDPCFGSNCEFQCQPVSPTDYRCICAPGFAPKPDEPHKCEMFCNETSCPADCDPNSPTVCECPEGFILDEGSVCTDIDECSQGECFTSECRNFPGSYECICGPDTALAGQISKDCDPIPVREDTKEEEGSGEPPVSPTPGSPTGPPSARPVHSGVLIGISIASLSLVVALLALLCHLRKKQGAARAELEYKCASSAKEVVLQHVRTDRTLQKF
# Key:
# Assay in all cases: glycan array binding signal (z-score within array); higher = stronger binding
# Settings in all cases: glycan notation: IUPAC condensed, linker removed
# [1] = molecular target: Neu5Ac(a2-3)Gal(b1-3)GlcNAc6S
# Outline: (§1)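 The binding signal is a Z-score computed within each array and averaged over linkers. Arrays of the same protein sequence at different concentrations or buffers were also averaged together. Data originate from 3228 arrays in the Consortium for Functional Glycomics database, kept only where the protein sequence was available.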
# [2] = molecular target: Neu5Ac(a2-3)Gal(b1-3)[Fuc(a1-4)]GlcNAc
# Outline: as §1
# [3] = molecular target: Neu5Ac(a2-3)Gal(b1-3)[Fuc(a1-4)]GlcNAc(b1-3)Gal(b1-3)[Fuc(a1-4)]GlcNAc
# Outline: as §1
# [4] = molecular target: Neu5Ac(a2-3)Gal(b1-3)[Fuc(a1-4)]GlcNAc(b1-3)Gal(b1-4)[Fuc(a1-3)]GlcNAc
# Outline: as §1
# [5] = molecular target: Neu5Ac(a2-3)Gal(b1-3)[GlcNAc(b1-6)]GalNAc
# Outline: as §1
# [6] = molecular target: Neu5Ac(a2-3)Gal(b1-3)[Neu5Ac(a2-6)]GalNAc
# Outline: as §1
# [7] = molecular target: Neu5Ac(a2-3)Gal(b1-3)[Neu5Ac(a2-6)]GlcNAc(b1-3)[Fuc(a1-3)[Gal(b1-4)]GlcNAc(b1-6)]Gal(b1-4)Glc
# Outline: as §1
# [8] = molecular target: Neu5Ac(a2-3)Gal(b1-3)]Neu5Ac(a2-3)Gal(b1-4)]GlcNAc
# Outline: as §1
# [9] = molecular target: Neu5Ac(a2-3)Gal(b1-4)Glc
# Outline: as §1
# [10] = molecular target: Neu5Ac(a2-3)Gal(b1-4)GlcNAc
# Outline: as §1
# [11] = molecular target: Neu5Ac(a2-3)Gal(b1-4)GlcNAc(b1-2)Man
# Outline: as §1
# [12] = molecular target: Neu5Ac(a2-3)Gal(b1-4)GlcNAc(b1-2)Man(a1-3)[GlcNAc(b1-4)][Neu5Ac(a2-3)Gal(b1-4)GlcNAc(b1-2)Man(a1-6)]Man(b1-4)GlcNAc(b1-4)GlcNAc
# Outline: as §1
# [13] = molecular target: Neu5Ac(a2-3)Gal(b1-4)GlcNAc(b1-2)Man(a1-3)[Neu5Ac(a2-3)Gal(b1-4)GlcNAc(b1-2)Man(a1-6)]Man(b1-4)GlcNAc(b1-4)GlcNAc
# Outline: as §1
# [14] = molecular target: Neu5Ac(a2-3)Gal(b1-4)GlcNAc(b1-2)Man(a1-3)[Neu5Ac(a2-3)Gal(b1-4)GlcNAc(b1-2)Man(a1-6)]Man(b1-4)GlcNAc(b1-4)[Fuc(a1-6)]GlcNAc
# Outline: as §1
# [15] = molecular target: Neu5Ac(a2-3)Gal(b1-4)GlcNAc(b1-2)Man(a1-3)[Neu5Ac(a2-6)Gal(b1-4)GlcNAc(b1-2)Man(a1-6)]Man(b1-4)GlcNAc(b1-4)GlcNAc
# Outline: as §1
# [16] = molecular target: Neu5Ac(a2-3)Gal(b1-4)GlcNAc(b1-2)[Neu5Ac(a2-3)Gal(b1-4)GlcNAc(b1-4)]Man(a1-3)[GlcNAc(b1-4)][Neu5Ac(a2-3)Gal(b1-4)GlcNAc(b1-2)[Neu5Ac(a2-3)Gal(b1-4)GlcNAc(b1-6)]Man(a1-6)]Man(b1-4)GlcNAc(b1-4)GlcNAc
# Outline: as §1
# [17] = molecular target: Neu5Ac(a2-3)Gal(b1-4)GlcNAc(b1-2)[Neu5Ac(a2-3)Gal(b1-4)GlcNAc(b1-4)]Man(a1-3)[GlcNAc(b1-4)][Neu5Ac(a2-3)Gal(b1-4)GlcNAc(b1-4)Man(a1-6)]Man(b1-4)GlcNAc(b1-4)GlcNAc
# Outline: as §1
# [18] = molecular target: Neu5Ac(a2-3)Gal(b1-4)GlcNAc(b1-2)[Neu5Ac(a2-3)Gal(b1-4)GlcNAc(b1-6)]Man(a1-6)[Neu5Ac(a2-3)Gal(b1-4)GlcNAc(b1-2)Man(a1-3)][GlcNAc(b1-4)]Man(b1-4)GlcNAc(b1-4)GlcNAc
# Outline: as §1
# [19] = molecular target: Neu5Ac(a2-3)Gal(b1-4)GlcNAc(b1-3)Gal
# Outline: as §1
# [20] = molecular target: Neu5Ac(a2-3)Gal(b1-4)GlcNAc(b1-3)Gal(b1-3)GlcNAc
# Outline: as §1
# [21] = molecular target: Neu5Ac(a2-3)Gal(b1-4)GlcNAc(b1-3)Gal(b1-4)GlcNAc
# Outline: as §1
# [22] = molecular target: Neu5Ac(a2-3)Gal(b1-4)GlcNAc(b1-3)Gal(b1-4)GlcNAc(b1-2)Man(a1-3)[Neu5Ac(a2-3)Gal(b1-4)GlcNAc(b1-3)Gal(b1-4)GlcNAc(b1-2)Man(a1-6)]Man(b1-4)GlcNAc(b1-4)GlcNAc
# Outline: as §1
# [23] = molecular target: Neu5Ac(a2-3)Gal(b1-4)GlcNAc(b1-3)Gal(b1-4)GlcNAc(b1-3)Gal(b1-4)GlcNAc
# Outline: as §1
# [24] = molecular target: Neu5Ac(a2-3)Gal(b1-4)GlcNAc(b1-3)Gal(b1-4)GlcNAc(b1-3)Gal(b1-4)GlcNAc(b1-2)Man(a1-3)[Neu5Ac(a2-3)Gal(b1-4)GlcNAc(b1-3)Gal(b1-4)GlcNAc(b1-3)Gal(b1-4)GlcNAc(b1-2)Man(a1-6)]GalNAc
# Outline: as §1
# [25] = molecular target: Neu5Ac(a2-3)Gal(b1-4)GlcNAc(b1-3)Gal(b1-4)GlcNAc(b1-3)GalNAc
# Outline: as §1
# [26] = molecular target: Neu5Ac(a2-3)Gal(b1-4)GlcNAc(b1-3)Gal(b1-4)GlcNAc(b1-3)[Neu5Ac(a2-3)Gal(b1-4)GlcNAc(b1-3)Gal(b1-4)GlcNAc(b1-6)]GalNAc
# Outline: as §1
# [27] = molecular target: Neu5Ac(a2-3)Gal(b1-4)GlcNAc(b1-3)Gal(b1-4)GlcNAc(b1-6)[Gal(b1-3)]GalNAc
# Outline: as §1
# [28] = molecular target: Neu5Ac(a2-3)Gal(b1-4)GlcNAc(b1-3)Gal(b1-4)[Fuc(a1-3)]GlcNAc
# Outline: as §1
# [29] = molecular target: Neu5Ac(a2-3)Gal(b1-4)GlcNAc(b1-3)GalNAc
# Outline: as §1
# [30] = molecular target: Neu5Ac(a2-3)Gal(b1-4)GlcNAc(b1-3)[Neu5Ac(a2-3)Gal(b1-4)GlcNAc(b1-6)]GalNAc
# Outline: as §1
binder,measurement,setting,value
B1,glycan array binding signal (z-score),[1],0.217
same,glycan array binding signal (z-score),[2],1.02
same,glycan array binding signal (z-score),[3],0.842
same,glycan array binding signal (z-score),[4],-0.677
same,glycan array binding signal (z-score),[5],-1.64
same,glycan array binding signal (z-score),[6],-0.012
same,glycan array binding signal (z-score),[7],-0.894
same,glycan array binding signal (z-score),[8],-0.84
same,glycan array binding signal (z-score),[9],-0.593
same,glycan array binding signal (z-score),[10],0.054
same,glycan array binding signal (z-score),[11],0.454
same,glycan array binding signal (z-score),[12],-0.092
same,glycan array binding signal (z-score),[13],0.132
same,glycan array binding signal (z-score),[14],-0.652
same,glycan array binding signal (z-score),[15],0.813
same,glycan array binding signal (z-score),[16],-0.306
same,glycan array binding signal (z-score),[17],-0.19
same,glycan array binding signal (z-score),[18],-0.599
same,glycan array binding signal (z-score),[19],0.003
same,glycan array binding signal (z-score),[20],-0.019
same,glycan array binding signal (z-score),[21],0.067
same,glycan array binding signal (z-score),[22],-0.523
same,glycan array binding signal (z-score),[23],-1.49
same,glycan array binding signal (z-score),[24],0.338
same,glycan array binding signal (z-score),[25],-0.036
same,glycan array binding signal (z-score),[26],0.846
same,glycan array binding signal (z-score),[27],-0.623
same,glycan array binding signal (z-score),[28],-0.925
same,glycan array binding signal (z-score),[29],1.03
same,glycan array binding signal (z-score),[30],0.215

# A run of entries from further up:
binder,measurement,setting,value
B1,glycan array binding signal (z-score),[24],0.338
same,glycan array binding signal (z-score),[25],-0.036
